The results in this text go back to paper PMC12501038.

The chains behind the UniProt entries cited, without tags or fusion partners. Where a name states a change or a piece, a line headed by the entry shows the natural chain unless it says otherwise. A line that says so, or that is headed by a name, gives the form on record, which may keep a tag or linker. Residues count along the entry.
UniProt Q570Y9: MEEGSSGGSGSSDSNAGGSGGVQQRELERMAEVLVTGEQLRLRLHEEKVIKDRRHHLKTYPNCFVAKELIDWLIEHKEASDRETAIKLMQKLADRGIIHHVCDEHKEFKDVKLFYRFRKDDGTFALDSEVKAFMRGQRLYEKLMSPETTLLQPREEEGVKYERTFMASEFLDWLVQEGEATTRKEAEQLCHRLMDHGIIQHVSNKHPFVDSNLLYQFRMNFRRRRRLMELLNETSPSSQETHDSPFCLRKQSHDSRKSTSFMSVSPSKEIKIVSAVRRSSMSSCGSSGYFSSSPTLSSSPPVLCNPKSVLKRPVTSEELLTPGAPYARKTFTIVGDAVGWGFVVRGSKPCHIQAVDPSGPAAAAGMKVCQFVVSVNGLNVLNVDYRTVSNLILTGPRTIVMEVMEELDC
UniProt Q8TB45: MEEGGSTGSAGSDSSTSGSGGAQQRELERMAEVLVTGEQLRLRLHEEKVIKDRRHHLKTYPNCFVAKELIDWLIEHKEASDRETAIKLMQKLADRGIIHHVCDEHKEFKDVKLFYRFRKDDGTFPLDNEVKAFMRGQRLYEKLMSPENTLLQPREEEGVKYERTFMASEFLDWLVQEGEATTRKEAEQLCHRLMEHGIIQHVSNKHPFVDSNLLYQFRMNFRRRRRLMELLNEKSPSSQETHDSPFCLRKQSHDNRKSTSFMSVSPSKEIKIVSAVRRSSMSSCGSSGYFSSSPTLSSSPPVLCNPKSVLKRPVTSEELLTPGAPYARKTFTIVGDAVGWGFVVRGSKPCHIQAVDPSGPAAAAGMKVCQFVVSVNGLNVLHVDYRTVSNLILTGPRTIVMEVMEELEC
FLAG-tagged PDZ domain of DEPTOR: residues 330-407 of Q8TB45

For test [1], the target named is HUWE1 fragment F5 (1000-2000) (UniProt Q7Z6Z7). In words: co-IP; HEK293 cells transfected with HUWE1 truncation constructs for 48 h, IP with anti-HA Ab, IB.
Test [2] has as its target HUWE1 fragment F3 (1394-1733) (UniProt Q7Z6Z7). The test is described as above.
The target in test [3] is HUWE1 fragment F1 (1-1000) (UniProt Q7Z6Z7). Described as above.
For test [4], the target named is DEPTOR (endogenous, mouse lymphoma) (mouse (endogenous in lymphomas)) (UniProt Q570Y9). The test is described as follows: co-IP; lymphomas from Deptor+/+;Pten+/- mice lysed, IP with anti-DEPTOR Ab (normal IgG as control), IB.
A further test has as its target FLAG-DEPTOR (UniProt Q8TB45). The test is described as follows: co-IP; HEK293 cells transfected with indicated plasmids for 48 h, IP with FLAG beads, IB; in some panels with co-transfected HA-DEPTOR or after lentiviral shDEPTOR.
For test [5], the target named is FLAG-EGFR (UniProt P00533). In words: pull-down; in vitro binding assay: FLAG-EGFR on FLAG beads (from HEK293 shDEPTOR cells) incubated with lysates of HEK293 shDEPTOR cells expressing HA-HUWE1, without or with purified HA-DEPTOR, 4.5 h at 4 °C, washed four times with lysis buffer, IB; only the target purified.
In test [6] the target is FLAG-EGFR (UniProt P00533). In words: co-IP; HEK293 cells transfected with indicated plasmids for 48 h, IP with FLAG beads, IB; in some panels with co-transfected HA-DEPTOR or after lentiviral shDEPTOR.
Test [7] has as its target FLAG-tagged PDZ domain of DEPTOR (UniProt Q8TB45). The description is as above.

These are yes or no findings as the source states them, for the method shown. In cells and extracts the contact can be indirect. Some entries that bind do so weakly or less than the wild type.

As for “DEPTOR (in HEK293 cells, Fig. 4D) (from UniProt Q8TB45 1-409)”, the binding result in test [1], in test [2] and in test [3] was “binds” throughout.

Turning to “EGFR (endogenous, mouse lymphoma) (from UniProt Q01279 25-1210) (receptor)”, the binding result in test [4] is reported as “binds”.

For “EGFR (in HEK293 cells, Fig. 4A) (from UniProt P00533 25-1210) (receptor)”, the binding entry in the test with FLAG-DEPTOR is on record as “binds”.

For the substance “HA-HUWE1 (from UniProt Q7Z6Z7 1-4374) (enzyme)”, the binding result with FLAG-EGFR [5] is “binds”.

As for “HUWE1 (endogenous, HEK293) (from UniProt Q7Z6Z7 1-4374) (enzyme)”, the binding entry (in the test with FLAG-EGFR [6]; in the test with FLAG-DEPTOR; in test [7]) was “binds” each time.
